Data: patent US20250345370A1, “MICROBIAL LIBERATION OF N-METHYLSEROTONIN FROM ORANGE FIBER” (Washington University, priority 2022, published 2025)
Further values from the same series stand in other lists.

System: colon gene expression
Experiment: RNA-Seq of colonic tissue of germ-free mice treated with 50 mg/kg/d N-methylserotonin
Type: in vivo, germ-free C57BL/6J mice
Conditions: colon

CNCCc1c[nH]c2ccc(O)cc12 [N-methylserotonin]
log2 fold-change (gene Mrpl42): −0.30
log2 fold-change (gene Ms4a5): 3.19
log2 fold-change (gene Ms4a8a): −0.51
log2 fold-change (gene Ms4a12): −0.62
log2 fold-change (gene Mt2): 0.75
log2 fold-change (gene Mtcl1): 0.66
log2 fold-change (gene Muc13): −0.47
log2 fold-change (gene Mvb12b): 0.38
log2 fold-change (gene Myo18b): 1.18
log2 fold-change (gene Myocd): 0.40
log2 fold-change (gene Myom1): 0.49
log2 fold-change (gene Naip1): −0.44
log2 fold-change (gene Nat8l): 0.72
log2 fold-change (gene Nbea): 0.35
log2 fold-change (gene Ncapg): −0.60
log2 fold-change (gene Ncdn): 0.51
log2 fold-change (gene Ndc1): −0.42
log2 fold-change (gene Ndrg1): 0.33
log2 fold-change (gene Ndrg2): −0.33
log2 fold-change (gene Ndufa10): −0.26
log2 fold-change (gene Ndufv2): −0.30
log2 fold-change (gene Neat1): 0.33
log2 fold-change (gene Nectin3): −0.25
log2 fold-change (gene Nedd9): −0.33
log2 fold-change (gene Neu3): −1.04
log2 fold-change (gene Nfix): 0.64
log2 fold-change (gene Nkd1): 0.80
log2 fold-change (gene Nlrp1b): −0.32
log2 fold-change (gene Nmnat2): 0.68
log2 fold-change (gene Nox1): −0.91
log2 fold-change (gene Npnt): 0.51
log2 fold-change (gene Nr1d2): 0.42
log2 fold-change (gene Nt5c3): −0.62
log2 fold-change (gene Nt5e): −0.52
log2 fold-change (gene Ntn1): 0.37
log2 fold-change (gene Nupl1): −0.30
log2 fold-change (gene Nupr1): 0.41
log2 fold-change (gene Nusap1): −0.49
log2 fold-change (gene Nxpe3): 1.84
log2 fold-change (gene Nxpe4): −0.70
log2 fold-change (gene Nynrin): 0.50
log2 fold-change (gene Oas1a): −0.42
log2 fold-change (gene Oas1g): −0.48
log2 fold-change (gene Oasl2): −0.66
log2 fold-change (gene Oat): −0.31
log2 fold-change (gene Olfml3): 0.45
log2 fold-change (gene Opcml): 0.79
log2 fold-change (gene Orm3): 0.01
log2 fold-change (gene Osbp2): 1.55
log2 fold-change (gene P4ha2): 0.45
log2 fold-change (gene Pacs1): 0.44
log2 fold-change (gene Pak3): 0.88
log2 fold-change (gene Pam): −0.50
log2 fold-change (gene Pappa): 0.60
log2 fold-change (gene Pate6): 0.01
log2 fold-change (gene Pbsn): 10.71
log2 fold-change (gene Pde7a): −0.63
log2 fold-change (gene Pdk4): −0.81
log2 fold-change (gene Pdxdc1): −0.25
log2 fold-change (gene Peli3): 0.74
log2 fold-change (gene Per3): 1.17
log2 fold-change (gene Pfkp): −0.28
log2 fold-change (gene Pglyrp1): −0.45
log2 fold-change (gene Phldb1): 0.34
log2 fold-change (gene Pigf): −0.48
log2 fold-change (gene Pign): −0.29
log2 fold-change (gene Pigr): −0.44
log2 fold-change (gene Pitpnm2): 0.48
log2 fold-change (gene Pla2g4f): −0.87
log2 fold-change (gene Pla2g10): −0.47
log2 fold-change (gene Plbd1): −0.62
log2 fold-change (gene Pld3): 0.35
log2 fold-change (gene Plekha8): −0.32
log2 fold-change (gene Plekhb2): −0.31
log2 fold-change (gene Plekhg5): 0.49
log2 fold-change (gene Plpp3): 0.31
log2 fold-change (gene Plscr3): 0.55
log2 fold-change (gene Pnck): 0.85
log2 fold-change (gene Pnkd): 0.53
log2 fold-change (gene Pnliprp1): 3.29
log2 fold-change (gene Pnp): −0.41
log2 fold-change (gene Pnpt1): −0.39
log2 fold-change (gene Pof1b): −0.43
log2 fold-change (gene Pola1): −0.55
log2 fold-change (gene Ppih): −0.46
log2 fold-change (gene Ppp1r3b): −0.53
log2 fold-change (gene Ppp1r12b): 0.27
log2 fold-change (gene Ppp4r1l-ps): 0.68
log2 fold-change (gene Ppy): −1.36
log2 fold-change (gene Prdx1): −0.26
log2 fold-change (gene Prkn): 1.09
log2 fold-change (gene Prodh): 0.57
log2 fold-change (gene Prom2): 0.01
log2 fold-change (gene Prr12): 0.55
log2 fold-change (gene Prrx1): 1.42
log2 fold-change (gene Ptprs): 0.43
log2 fold-change (gene Pycr1): 0.88
log2 fold-change (gene Pyy): −0.64
log2 fold-change (gene Qpctl): 0.46
log2 fold-change (gene R3hcc1): 0.43
log2 fold-change (gene Rab11fip3): 0.48
log2 fold-change (gene Rbfox3): 2.79
log2 fold-change (gene Rdh16): −0.68
log2 fold-change (gene Ren1): 8.82
log2 fold-change (gene Rep15): −0.41
log2 fold-change (gene Retreg1): −0.40
log2 fold-change (gene Rhbdf1): 0.47
log2 fold-change (gene Rimklb): 2.24
log2 fold-change (gene Rims4): −0.82
log2 fold-change (gene Rnase1): 3.42
log2 fold-change (gene Rnf125): −0.73
log2 fold-change (gene Rorb): 1.88
log2 fold-change (gene Rrm1): −0.42
log2 fold-change (gene Rsad2): −0.75
log2 fold-change (gene Rusc2): 0.43
log2 fold-change (gene Samd5): 0.41
log2 fold-change (gene Samd9l): −0.34
log2 fold-change (gene Sdc3): 0.40
log2 fold-change (gene Sdk2): 0.72
log2 fold-change (gene Selenop): −0.57
log2 fold-change (gene Serpina9): −1.18
log2 fold-change (gene Setd1b): 0.49
log2 fold-change (gene Sh3bp4): 0.55
log2 fold-change (gene Sh3gl2): 0.49
log2 fold-change (gene Shisa4): 2.78
log2 fold-change (gene Skil): −0.39
log2 fold-change (gene Slc1a1): −0.59
log2 fold-change (gene Slc2a5): 0.65
log2 fold-change (gene Slc2a13): −0.44
log2 fold-change (gene Slc5a3): −0.45
log2 fold-change (gene Slc5a8): −0.56
log2 fold-change (gene Slc6a6): 0.32
log2 fold-change (gene Slc6a14): −0.32
log2 fold-change (gene Slc7a1): 0.52
log2 fold-change (gene Slc7a9): −1.03
log2 fold-change (gene Slc9a1): 0.45
log2 fold-change (gene Slc15a1): −0.63
log2 fold-change (gene Slc16a2): 0.73
log2 fold-change (gene Slc16a7): 1.26
log2 fold-change (gene Slc16a12): −0.94
log2 fold-change (gene Slc17a4): −0.39
log2 fold-change (gene Slc25a5): −0.25
log2 fold-change (gene Slc25a20): −0.31
log2 fold-change (gene Slc25a22): 0.52
log2 fold-change (gene Slc25a23): 0.54
log2 fold-change (gene Slc25a29): 1.25
log2 fold-change (gene Slc25a46): −0.29
log2 fold-change (gene Slc30a2): 3.33
log2 fold-change (gene Slc30a4): −0.26
log2 fold-change (gene Slc34a2): −1.07
log2 fold-change (gene Slc35a3): −0.35
log2 fold-change (gene Slc40a1): −0.69
log2 fold-change (gene Slc41a1): 0.38
log2 fold-change (gene Slc44a1): −0.34
log2 fold-change (gene Slc46a1): −0.65
log2 fold-change (gene Slc52a2): 0.46
log2 fold-change (gene Slco4c1): 5.14
log2 fold-change (gene Slit3): 0.45
log2 fold-change (gene Smc2): −0.44
log2 fold-change (gene Smchd1): −0.27
log2 fold-change (gene Smim1): 1.51
log2 fold-change (gene Smpdl3a): −0.42
